{"source": "PubChem BioAssay AID332", "about": "(DTP/NCI, 2004)", "test_system": "mice, ADJ-PC-20 plasma cell tumor sc, T/C %", "test": "NCI In Vivo Anticancer Drug Screen. Data for tumor model ADJ-PC-20 Plasma Cell (subcutaneous) in unknown mice", "details": "T/C endpoint: mean tumor weight, schedule: Q01DX010 (ip), vehicle: saline, evaluation day not shown, higher T/C = larger tumour", "protocol": "The antitumor activity of compounds was measured in mice bearing transplantable tumors. Survival or tumor size were measured and the results are expressed as the measurement made in the treated group (T) divided by the measurement made in the vehicle treated control group (C). The tumor model used in this assay is ADJ-PC-20 Plasma Cell (subcutaneous) in unknown mice", "note": "The list shows only some results of the screen, not a fair sample: it gathers some chemical classes. Not every dose and run of a compound is shown. T/C: endpoint of the treated group in % of that of the vehicle group. Some T/C values are marked as having no survivor count here; that says nothing about deaths at the dose. Schedules are NCI's codes, read here as Q, the interval in days (D) or hours (H), X, the number of doses."}
{"smiles": "CN(CCCl)CCCl", "values": [{"measurement": "T/C", "setting": "dose: 0.03 mg/kg/injection", "result": "98 % of control [survivor count not shown]"}, {"measurement": "T/C", "setting": "dose: 0.06 mg/kg/injection", "result": "130 % of control [survivor count not shown]"}, {"measurement": "T/C", "setting": "dose: 0.12 mg/kg/injection", "result": "98 % of control [survivor count not shown]"}, {"measurement": "T/C", "setting": "dose: 0.25 mg/kg/injection", "result": "54 % of control [survivor count not shown]"}]}
